These are yes or no findings as the source states them, for the method shown. In cells and extracts the contact can be indirect. Some binding calls cover weakened binding; strength is not graded here. Sequences can lack the tags named with a protein. One block for each molecule: values may come before it.
Columns and labels:
[1] = target: T1, mitofusin 1 (Mfn1), endogenous rat (rat (endogenous in heart and neonatal cardiomyocytes)) (UniProt Q8R4Z9); experiment: co-IP; rat cardiac mitochondrial fraction (0.25 mg protein) with 2 μg anti-Mfn1 or anti-βIIPKC antibody in NaCl 150 mM, EDTA 5 mM, Tris-HCl 10 mM, Triton X100 0.1%, pH 7.4, 3 h at 4 °C, protein A/G agarose; western blot; hearts of sham, TAT-treated, βII_(V5-3)-treated or SAMβA-treated heart failure rats
T1 sequence: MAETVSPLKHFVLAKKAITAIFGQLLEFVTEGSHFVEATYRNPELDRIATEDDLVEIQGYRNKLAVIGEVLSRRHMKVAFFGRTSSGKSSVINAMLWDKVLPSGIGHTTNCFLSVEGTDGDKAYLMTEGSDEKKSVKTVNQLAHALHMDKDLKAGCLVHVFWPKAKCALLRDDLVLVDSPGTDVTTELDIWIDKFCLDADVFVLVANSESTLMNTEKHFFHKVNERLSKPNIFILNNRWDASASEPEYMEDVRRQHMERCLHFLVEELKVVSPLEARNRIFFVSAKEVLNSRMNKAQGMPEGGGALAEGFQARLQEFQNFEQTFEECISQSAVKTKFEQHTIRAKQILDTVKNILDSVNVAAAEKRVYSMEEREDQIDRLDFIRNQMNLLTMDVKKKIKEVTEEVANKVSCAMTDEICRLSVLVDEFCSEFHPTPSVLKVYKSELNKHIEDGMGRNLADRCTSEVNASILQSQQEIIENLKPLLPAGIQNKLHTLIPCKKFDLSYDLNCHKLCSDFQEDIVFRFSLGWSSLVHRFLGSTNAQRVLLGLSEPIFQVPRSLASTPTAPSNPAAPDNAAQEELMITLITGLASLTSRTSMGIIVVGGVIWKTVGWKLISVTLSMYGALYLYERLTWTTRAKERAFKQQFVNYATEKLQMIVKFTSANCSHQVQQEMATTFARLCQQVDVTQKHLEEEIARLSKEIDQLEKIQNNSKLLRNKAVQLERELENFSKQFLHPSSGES

Amino acid sequences for entries named in this document (tags omitted). A change or cut given only in a name is not applied to a line headed by its entry. Chains listed by the source or under a name are the forms on record and can include a tag or linker.
beta II protein kinase C (βIIPKC), endogenous rat (rat (endogenous in heart and neonatal cardiomyocytes)) (P68403-2, form named): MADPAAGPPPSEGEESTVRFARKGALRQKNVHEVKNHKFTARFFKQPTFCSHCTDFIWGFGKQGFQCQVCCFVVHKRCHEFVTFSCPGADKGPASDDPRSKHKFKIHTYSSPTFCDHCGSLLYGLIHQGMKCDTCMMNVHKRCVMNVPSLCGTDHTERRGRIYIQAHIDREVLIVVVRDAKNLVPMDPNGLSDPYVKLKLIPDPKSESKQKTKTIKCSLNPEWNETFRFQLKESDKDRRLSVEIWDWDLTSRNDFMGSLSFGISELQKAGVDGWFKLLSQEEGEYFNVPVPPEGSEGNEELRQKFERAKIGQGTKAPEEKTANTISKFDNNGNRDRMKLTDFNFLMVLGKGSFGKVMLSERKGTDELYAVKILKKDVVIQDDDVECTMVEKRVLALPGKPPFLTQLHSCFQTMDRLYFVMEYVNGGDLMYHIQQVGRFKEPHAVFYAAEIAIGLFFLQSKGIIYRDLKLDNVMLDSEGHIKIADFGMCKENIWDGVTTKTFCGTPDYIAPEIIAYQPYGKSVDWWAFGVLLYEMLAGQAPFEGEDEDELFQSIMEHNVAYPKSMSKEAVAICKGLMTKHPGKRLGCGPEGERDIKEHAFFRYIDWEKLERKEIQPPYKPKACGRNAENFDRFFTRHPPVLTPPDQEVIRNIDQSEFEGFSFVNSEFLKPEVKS

[2] = target: beta II protein kinase C (βIIPKC), endogenous rat (rat (endogenous in heart and neonatal cardiomyocytes)) (UniProt P68403); experiment: as above

- binding [1]: binds
Molecule: beta II protein kinase C (βIIPKC), endogenous rat (from UniProt P68403-2 1-673) (enzyme)

- binding [2]: binds
B1: mitofusin 1 (Mfn1), endogenous rat (enzyme, UniProt Q8R4Z9 1-741)
chain: T1 sequence

Reference: PMC6338754
